This note sets out measurements from publication PMC5512060.

Chains of the proteins cited; added tags and fusions are not shown.
UniProt Q15286: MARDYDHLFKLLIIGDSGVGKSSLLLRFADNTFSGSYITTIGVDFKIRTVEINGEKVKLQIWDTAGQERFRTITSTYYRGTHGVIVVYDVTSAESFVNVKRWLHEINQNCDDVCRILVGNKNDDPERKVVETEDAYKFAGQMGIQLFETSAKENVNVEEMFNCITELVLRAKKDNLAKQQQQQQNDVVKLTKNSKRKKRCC

Results are given in words; binding and its absence hold for the method and conditions named. Binding seen in cells or lysates may run through a third protein. A yes stands for co-enrichment or nearness to the bait. Other partners may have been found.

The assay addresses Rab35-WT–GST (UniProt Q15286). The assay is described as follows: affinity purification with mass spectrometry; Rab35–GST or GST on glutathione-Sepharose beads incubated with HUVEC lysates with 100 uM GTPγS, 2 h, 4 °C; eluted with 5 mM GDP, 20 mM EDTA, 1.5 M NaCl; silver-stained bands identified by mass spectrometry; only the target purified.

B1: ACAP2 (endogenous, HUVEC) (protein, UniProt Q15057 1-778)
chain: MKMTVDFEECLKDSPRFRAALEEVEGDVAELELKLDKLVKLCIAMIDTGKAFCVANKQFMNGIRDLAQYSSNDAVVETSLTKFSDSLQEMINFHTILFDQTQRSIKAQLQNFVKEDLRKFKDAKKQFEKVSEEKENALVKNAQVQRNKQHEVEEATNILTATRKCFRHIALDYVLQINVLQSKRRSEILKSMLSFMYAHLAFFHQGYDLFSELGPYMKDLGAQLDRLVVDAAKEKREMEQKHSTIQQKDFSSDDSKLEYNVDAANGIVMEGYLFKRASNAFKTWNRRWFSIQNNQLVYQKKFKDNPTVVVEDLRLCTVKHCEDIERRFCFEVVSPTKSCMLQADSEKLRQAWIKAVQTSIATAYREKGDESEKLDKKSSPSTGSLDSGNESKEKLLKGESALQRVQCIPGNASCCDCGLADPRWASINLGITLCIECSGIHRSLGVHFSKVRSLTLDTWEPELLKLMCELGNDVINRVYEANVEKMGIKKPQPGQRQEKEAYIRAKYVERKFVDKYSISLSPPEQQKKFVSKSSEEKRLSISKFGPGDQVRASAQSSVRSNDSGIQQSSDDGRESLPSTVSANSLYEPEGERQDSSMFLDSKHLNPGLQLYRASYEKNLPKMAEALAHGADVNWANSEENKATPLIQAVLGGSLVTCEFLLQNGANVNQRDVQGRGPLHHATVLGHTGQVCLFLKRGANQHATDEEGKDPLSIAVEAANADIVTLLRLARMNEEMRESEGLYGQPGDETYQDIFRDFSQMASNNPEKLNRFQQDSQKF
As for B1, the binding result was “binds”.
